Binding data for 1 molecule are collected here from US20250297018A1, “IL-18BP ANTAGONIST ANTIBODIES AND THEIR USE IN MONOTHERAPY AND COMBINATION THERAPY IN THE TREATMENT OF CANCER” (Compugen Ltd., priority 2022, published 2025).

In the experiment the target is T1, mouse IL18BP-Fc (mouse; human) (UniProt Q9Z0M9).
T1 sequence (looked up): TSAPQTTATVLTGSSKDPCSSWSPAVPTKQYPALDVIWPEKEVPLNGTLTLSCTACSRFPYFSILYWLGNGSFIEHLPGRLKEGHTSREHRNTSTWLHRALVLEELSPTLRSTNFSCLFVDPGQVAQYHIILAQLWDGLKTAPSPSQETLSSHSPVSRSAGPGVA
The experiment can be described thus: Biacore.

No constants are given. Whether binding was seen depends on the method and setting. Some binding calls cover weakened binding; strength is not graded here. Where a sequence is shown, tags or fusion partners need not be part of it.

B1: ADI-71739 Fab fragment (Fab, V domains shown)
VH: QLQLQESGPGLVKPSETLSLTCTVSGGSISSPDYPWGWIRQPPGKGLEWIGSIYYQGATYYNPSLKSRVTISVDTSKNQFSLKLSSVTAADTAVYYCARGPYRQLFDYWGQGTLVTVSS
VL: DIQMTQSPSSVSASVGDRVTITCRASQGISSWLAWYQQKPGKAPKLLIYAASSLQSGVPSRFSGSGSGTDFTLTISSLQPEDFATYYCQQGSVFPYTFGGGTKVEIK
On to B1, for which the binding entry is “binds”.
